Values of other authors, collected in patent publication US20080233151A1, “Use of non-antibacterial tetracycline analogs and formulations thereof for the treatment of bacterial exotoxins” (priority 2002, published 2008).

Test system: exotoxins released by the bacteria
Conditions: cited from earlier work

O=C(O)c1cn(C2CC2)c2cc(N3CCNCC3)c(F)cc2c1=O [ciprofloxacin]
effect on the exotoxins released by the bacteria: substantially no effect
